Taken from: PubChem BioAssay AID652243 (Drosophila RNAi Screening Center, 2013)
In all, the deposit lists about 24,000 reagents; this is an unselected part of those that have a named target and a result. Of all reagents, 246 (1%) are marked active. 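Plates not normalised; calls are printed but the firefly/Renilla ratio behind them is not deposited; fold cut for lowering reported inconsistently.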 Raw values are not corrected between plates. Names joined by + are all predicted targets of the reagent. Reagent sequences are not shown. Not stated in the record: the amount of reagent.

Screen: 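Fly genes required for human androgen receptor driven transcription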 (primary screen)
System: Drosophila S2R+ cells
Knock-down reagent: long dsRNA against Drosophila genes
Time to read-out: 72 h (48 h, then 24 h hormone)
Treatment: synthetic androgen R1881 at 10 nM for 24 h
Read-out: 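Per-well raw luminescence of the androgen-driven firefly reporter and of the Renilla control, two replicates each, without normalisation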
Scale: firefly reporter light: higher = more light from androgen-responsive reporter; Renilla control light: higher = more constitutive control signal (cell number, transfection)
Rule for the call: 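Hit when the log firefly-to-Renilla ratio dropped or increased by a fixed fold versus the mean of GFP or LacZ controls across duplicate plates; lowering cut given as 1.5 and as 3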
Calls: active = hit: reporter lowered or raised; inactive = no hit

gene knocked down	DRSC id	firefly reporter light, replicate 1	firefly reporter light, replicate 2	Renilla control light, replicate 1	Renilla control light, replicate 2	call
CG17237	DRSC00491	1.23e5	93753	8.29e5	9.40e5	inactive
Fur2	DRSC19817	3.84e5	3.89e5	2.06e6	2.37e6	inactive
Fur2	DRSC39258					inactive
Fur2	DRSC39305					inactive
bsf	DRSC02035	7.29e5	1.21e6	1.26e6	1.29e6	inactive
Oscillin	DRSC03001	8.27e5	7.37e5	1.51e6	1.53e6	inactive
Oscillin	DRSC29150	6.12e5	6.67e5	1.13e6	1.40e6	inactive
Obp49a	DRSC22562	6.08e5	6.40e5	1.39e6	1.09e6	inactive
Obp49a	DRSC25703	3.39e5	2.47e5	4.95e5	4.83e5	inactive
Mcm2	DRSC16734	59727	51548	1.68e6	1.48e6	inactive
Mcm2	DRSC26612	2.42e5	1.37e5	6.36e5	6.71e5	inactive
CG5493 + CG5327	DRSC06938	1.61e5	1.49e5	2.11e6	2.04e6	inactive
CG7366	DRSC10825	6.19e5	6.05e5	3.34e6	3.83e6	inactive
CG7366	DRSC29988	4.29e5	3.72e5	1.00e6	8.02e5	inactive
Ir62a	DRSC08250	49870	1.30e5	8.25e5	1.68e6	inactive
run	DRSC20584	34914	33261	3.97e5	2.77e5	inactive
run	DRSC21515	7.86e5	6.20e5	3.11e6	2.16e6	inactive
run	DRSC27251	2.77e5	2.00e5	3.89e5	3.31e5	inactive
Rab4	DRSC07524	1.59e6	1.25e6	1.65e6	1.40e6	inactive
Cpr47Ea	DRSC07333	5.00e5	3.41e5	2.75e6	2.06e6	inactive
CG12836	DRSC06182	4.19e5	4.17e5	2.25e6	2.02e6	inactive
CG12547	DRSC07759	85528	1.69e5	1.14e6	1.64e6	inactive
CG33469	DRSC22900	5.98e5	1.03e6	1.61e6	1.91e6	inactive
Hcs	DRSC12070	1.89e5	2.65e5	5.03e5	6.57e5	inactive
Hcs	DRSC12256	79675	55855	1.13e6	8.86e5	inactive
CG42299 + CG42300	DRSC19680	4.44e5	3.56e5	2.69e6	2.73e6	inactive
CG42299 + CG42300	DRSC19815	2.91e5	3.61e5	3.04e6	2.83e6	inactive
Ktch	DRSC15094	1.77e5	1.55e5	2.17e6	2.51e6	inactive
Ktch	DRSC25973	3.52e5	2.59e5	5.74e5	4.84e5	inactive
CG32686	DRSC17645	4.37e5	6.04e5	1.34e6	1.37e6	inactive
CG32686	DRSC25488	1.34e6	1.71e6	1.65e6	2.08e6	inactive
CG32110	DRSC09220	1.64e5	2.10e5	3.59e5	4.94e5	inactive
CG31715	DRSC21607	1.14e6	9.00e5	1.38e6	8.91e5	inactive
CG32847	DRSC22901	7.03e5	7.63e5	2.42e6	2.64e6	inactive
mthl12	DRSC12964	63889	1.46e5	1.37e5	1.69e5	inactive
CG3634	DRSC11747	2.12e5	1.65e5	1.99e6	2.05e6	inactive

Continued; the last 2 above are carried over.
gene knocked down	DRSC id	firefly reporter light, replicate 1	firefly reporter light, replicate 2	Renilla control light, replicate 1	Renilla control light, replicate 2	call
mthl12	DRSC12964	63889	1.46e5	1.37e5	1.69e5	inactive
CG3634	DRSC11747	2.12e5	1.65e5	1.99e6	2.05e6	inactive
CG10527	DRSC04078	7.56e5	3.26e5	2.23e6	1.35e6	inactive
CG10527	DRSC27160	2.93e5	2.75e5	6.01e5	6.97e5	inactive
Smyd4-4	DRSC05956	7.85e5	8.71e5	1.15e6	1.36e6	inactive
Brd7-9	DRSC03017	8.73e5	1.18e6	1.30e6	1.28e6	inactive
Brd7-9	DRSC29592	5.10e5	6.44e5	8.29e5	8.29e5	inactive
CG15034	DRSC17966	3.39e5	4.40e5	2.25e6	3.03e6	inactive
CG2258	DRSC18222	66420	76294	5.56e5	3.82e5	inactive
CG2258	DRSC28795	2.46e5	3.13e5	1.39e6	1.21e6	inactive
Pdp1	DRSC08896	21188	8866	31679	32391	inactive
Pdp1	DRSC08897	1968	4457	14358	18606	active
Pdp1	DRSC11251	2.24e5	2.26e5	1.98e6	2.71e6	inactive
Pdp1	DRSC22973	4.48e5	5.46e5	1.28e6	1.10e6	inactive
Tssk	DRSC14784	1.56e5	1.61e5	1.61e6	1.76e6	inactive
Tssk	DRSC26679	2.87e5	3.33e5	4.20e5	4.14e5	inactive
Obp22a	DRSC00088	1.66e5	2.18e5	7.51e5	3.91e5	inactive
CG43691	DRSC06650	2.50e5	2.11e5	2.04e6	1.85e6	inactive
CG43691	DRSC06651	2.12e5	1.43e5	1.76e6	1.06e6	inactive
CG30460	DRSC06559	1.04e5	1.15e5	2.18e6	2.18e6	inactive
CG30460	DRSC23115	8.13e5	9.61e5	1.54e6	1.97e6	inactive
CG33462	DRSC22902	3.78e5	1.13e6	1.36e6	2.60e6	inactive
HIP + HIP-R	DRSC18245	1.26e5	1.16e5	1.12e6	7.89e5	inactive
HIP + HIP-R	DRSC27912	4.01e5	2.51e5	9.32e5	6.67e5	inactive
HIP + HIP-R	DRSC38701	4.51e5	4.36e5	1.39e6	1.40e6	inactive
